This is one part of the list.
Experiments:
Assay in all cases: log2 fold change, soluble protein after heating vs DMSO (PISA); higher = thermal stabilisation; K562 cells, 10 uM, 30 min; active = over 0.2 and 3.5 SD of the protein, either way, in both replicates (recomputed)
[1] = compound: CN1CCN(CCOc2cc(OC3CCOCC3)c3c(Nc4c(Cl)ccc5c4OCO5)ncnc3c2)CC1 [saracatinib]
Procedure, shortened: (§1)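 K562 cells at 2×10^6 cells/mL were exposed to 10 μM compound for 30 min, then aliquots were heated for 3 min across 48°C-58°C, pooled, and extracted in PBS containing 0.5% NP-40 at 4°C. The supernatant after 21,000xg for 90 min was taken as soluble protein and measured by TMTpro 16plex LC-MS/MS with channel sums equalised. Thermal stability is reported relative to control samples, with values from duplicates. Fold changes are given on a log2 scale.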

Sequences of proteins named here, by UniProt entry; tags and fusion partners are left off. A change or cut given only in a name is not applied to a line headed by its entry.
UniProt Q8NHP8: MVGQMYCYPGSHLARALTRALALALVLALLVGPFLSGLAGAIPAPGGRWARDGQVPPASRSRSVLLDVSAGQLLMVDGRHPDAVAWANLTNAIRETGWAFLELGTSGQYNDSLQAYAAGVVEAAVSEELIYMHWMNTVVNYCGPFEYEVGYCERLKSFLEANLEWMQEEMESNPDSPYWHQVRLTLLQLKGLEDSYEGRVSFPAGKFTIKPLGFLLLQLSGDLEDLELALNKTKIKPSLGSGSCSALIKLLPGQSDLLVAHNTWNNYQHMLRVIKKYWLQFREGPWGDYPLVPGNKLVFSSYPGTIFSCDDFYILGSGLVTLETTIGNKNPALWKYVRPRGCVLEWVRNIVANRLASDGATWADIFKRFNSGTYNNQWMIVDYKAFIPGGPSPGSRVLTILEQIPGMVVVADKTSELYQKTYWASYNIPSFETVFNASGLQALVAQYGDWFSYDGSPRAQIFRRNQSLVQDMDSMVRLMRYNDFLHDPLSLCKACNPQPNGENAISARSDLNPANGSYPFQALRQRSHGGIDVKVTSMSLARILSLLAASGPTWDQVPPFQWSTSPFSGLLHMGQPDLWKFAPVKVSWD
UniProt O60925, whole entry, looked up: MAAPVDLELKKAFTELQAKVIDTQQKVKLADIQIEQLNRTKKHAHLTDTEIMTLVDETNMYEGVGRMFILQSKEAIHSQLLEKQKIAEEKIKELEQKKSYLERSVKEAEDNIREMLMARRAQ
UniProt Q7Z7B1: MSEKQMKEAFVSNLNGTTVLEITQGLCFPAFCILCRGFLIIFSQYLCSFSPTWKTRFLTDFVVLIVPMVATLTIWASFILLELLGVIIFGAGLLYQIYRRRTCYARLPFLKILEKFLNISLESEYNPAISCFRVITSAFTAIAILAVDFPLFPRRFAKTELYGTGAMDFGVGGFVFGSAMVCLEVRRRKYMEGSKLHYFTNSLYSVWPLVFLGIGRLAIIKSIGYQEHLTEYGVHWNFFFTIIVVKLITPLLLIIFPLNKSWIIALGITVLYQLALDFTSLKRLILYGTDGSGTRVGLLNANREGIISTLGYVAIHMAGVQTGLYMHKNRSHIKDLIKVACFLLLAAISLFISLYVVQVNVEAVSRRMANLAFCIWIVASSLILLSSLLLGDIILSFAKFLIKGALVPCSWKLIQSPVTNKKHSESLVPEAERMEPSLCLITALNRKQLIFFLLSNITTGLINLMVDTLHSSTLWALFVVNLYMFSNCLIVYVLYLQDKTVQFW
UniProt Q9Y2B2: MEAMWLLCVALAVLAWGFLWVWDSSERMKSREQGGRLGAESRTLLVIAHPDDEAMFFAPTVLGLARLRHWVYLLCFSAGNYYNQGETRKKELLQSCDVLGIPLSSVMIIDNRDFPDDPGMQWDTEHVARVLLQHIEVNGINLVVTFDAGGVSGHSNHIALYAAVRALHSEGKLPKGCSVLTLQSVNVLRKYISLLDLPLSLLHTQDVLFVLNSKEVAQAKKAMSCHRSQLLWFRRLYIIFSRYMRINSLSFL
UniProt Q14442: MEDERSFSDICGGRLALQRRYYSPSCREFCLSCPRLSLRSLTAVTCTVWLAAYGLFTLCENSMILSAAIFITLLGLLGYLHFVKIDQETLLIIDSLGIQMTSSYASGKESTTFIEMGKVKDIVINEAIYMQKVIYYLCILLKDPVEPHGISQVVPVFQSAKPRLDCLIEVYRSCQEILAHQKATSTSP
UniProt O60331: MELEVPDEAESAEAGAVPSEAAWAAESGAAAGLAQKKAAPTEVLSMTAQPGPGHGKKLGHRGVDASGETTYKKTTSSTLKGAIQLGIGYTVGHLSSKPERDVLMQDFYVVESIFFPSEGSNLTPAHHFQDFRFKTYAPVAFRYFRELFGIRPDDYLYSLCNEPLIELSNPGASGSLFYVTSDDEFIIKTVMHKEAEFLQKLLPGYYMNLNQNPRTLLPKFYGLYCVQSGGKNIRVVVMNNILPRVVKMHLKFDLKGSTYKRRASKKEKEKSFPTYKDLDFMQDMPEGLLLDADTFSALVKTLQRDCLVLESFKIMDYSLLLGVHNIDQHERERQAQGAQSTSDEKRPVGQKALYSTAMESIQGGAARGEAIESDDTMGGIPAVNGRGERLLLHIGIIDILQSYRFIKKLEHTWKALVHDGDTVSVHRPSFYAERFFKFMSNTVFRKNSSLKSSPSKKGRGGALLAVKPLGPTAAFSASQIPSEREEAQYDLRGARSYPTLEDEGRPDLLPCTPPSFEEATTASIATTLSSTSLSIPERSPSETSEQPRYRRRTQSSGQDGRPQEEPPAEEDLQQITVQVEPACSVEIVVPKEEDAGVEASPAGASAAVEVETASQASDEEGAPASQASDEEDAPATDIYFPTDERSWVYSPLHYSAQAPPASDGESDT
UniProt Q8WXW3: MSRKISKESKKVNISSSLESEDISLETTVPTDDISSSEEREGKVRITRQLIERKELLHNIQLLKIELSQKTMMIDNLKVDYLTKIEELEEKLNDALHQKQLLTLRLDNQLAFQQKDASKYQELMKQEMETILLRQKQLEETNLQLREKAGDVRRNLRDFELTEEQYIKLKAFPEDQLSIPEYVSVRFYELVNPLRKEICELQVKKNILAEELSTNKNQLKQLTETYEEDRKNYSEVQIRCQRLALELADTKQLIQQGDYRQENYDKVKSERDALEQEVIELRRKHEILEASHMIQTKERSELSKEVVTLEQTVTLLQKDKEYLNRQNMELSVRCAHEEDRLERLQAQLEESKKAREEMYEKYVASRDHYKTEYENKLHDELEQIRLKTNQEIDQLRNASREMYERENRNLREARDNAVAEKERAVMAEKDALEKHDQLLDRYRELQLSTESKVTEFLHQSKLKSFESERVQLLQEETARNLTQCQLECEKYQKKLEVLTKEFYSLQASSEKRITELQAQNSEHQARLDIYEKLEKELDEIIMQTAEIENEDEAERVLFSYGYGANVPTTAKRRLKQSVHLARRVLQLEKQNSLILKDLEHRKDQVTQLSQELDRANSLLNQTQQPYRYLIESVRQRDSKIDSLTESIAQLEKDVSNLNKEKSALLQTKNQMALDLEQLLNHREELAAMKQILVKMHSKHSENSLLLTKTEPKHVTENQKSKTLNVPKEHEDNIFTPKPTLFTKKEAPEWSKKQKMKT
UniProt Q32M88: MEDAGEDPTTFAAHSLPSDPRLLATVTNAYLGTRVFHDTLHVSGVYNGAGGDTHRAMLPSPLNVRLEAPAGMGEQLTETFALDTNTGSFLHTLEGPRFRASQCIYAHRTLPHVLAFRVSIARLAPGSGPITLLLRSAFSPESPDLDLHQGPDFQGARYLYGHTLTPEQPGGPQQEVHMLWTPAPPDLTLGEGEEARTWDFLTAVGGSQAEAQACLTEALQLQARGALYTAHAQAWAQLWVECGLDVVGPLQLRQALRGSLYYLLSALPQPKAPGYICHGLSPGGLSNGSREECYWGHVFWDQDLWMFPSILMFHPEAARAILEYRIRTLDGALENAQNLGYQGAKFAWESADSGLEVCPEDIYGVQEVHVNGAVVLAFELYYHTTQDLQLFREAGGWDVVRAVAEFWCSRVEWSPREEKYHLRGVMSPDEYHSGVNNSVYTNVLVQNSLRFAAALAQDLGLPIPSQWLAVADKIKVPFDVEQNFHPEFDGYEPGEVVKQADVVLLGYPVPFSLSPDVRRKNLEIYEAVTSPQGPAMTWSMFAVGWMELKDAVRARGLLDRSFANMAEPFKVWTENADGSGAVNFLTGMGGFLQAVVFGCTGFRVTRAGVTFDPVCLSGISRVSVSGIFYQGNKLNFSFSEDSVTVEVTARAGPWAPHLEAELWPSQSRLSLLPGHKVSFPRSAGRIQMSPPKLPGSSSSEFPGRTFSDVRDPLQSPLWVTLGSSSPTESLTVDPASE
UniProt P14618, whole entry, looked up: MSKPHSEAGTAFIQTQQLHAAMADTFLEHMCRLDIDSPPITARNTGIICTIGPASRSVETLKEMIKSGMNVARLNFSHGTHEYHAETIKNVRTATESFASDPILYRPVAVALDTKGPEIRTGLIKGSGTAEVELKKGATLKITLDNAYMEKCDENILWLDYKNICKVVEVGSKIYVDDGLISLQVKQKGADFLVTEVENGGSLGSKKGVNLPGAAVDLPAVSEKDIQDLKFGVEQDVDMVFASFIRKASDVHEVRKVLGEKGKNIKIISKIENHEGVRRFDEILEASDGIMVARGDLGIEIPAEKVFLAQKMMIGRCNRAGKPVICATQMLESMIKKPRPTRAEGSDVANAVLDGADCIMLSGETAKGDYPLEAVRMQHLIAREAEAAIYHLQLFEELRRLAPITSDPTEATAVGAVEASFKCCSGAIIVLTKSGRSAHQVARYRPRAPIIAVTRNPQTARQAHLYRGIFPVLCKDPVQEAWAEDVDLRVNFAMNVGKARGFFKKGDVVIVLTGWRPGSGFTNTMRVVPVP
UniProt O00329: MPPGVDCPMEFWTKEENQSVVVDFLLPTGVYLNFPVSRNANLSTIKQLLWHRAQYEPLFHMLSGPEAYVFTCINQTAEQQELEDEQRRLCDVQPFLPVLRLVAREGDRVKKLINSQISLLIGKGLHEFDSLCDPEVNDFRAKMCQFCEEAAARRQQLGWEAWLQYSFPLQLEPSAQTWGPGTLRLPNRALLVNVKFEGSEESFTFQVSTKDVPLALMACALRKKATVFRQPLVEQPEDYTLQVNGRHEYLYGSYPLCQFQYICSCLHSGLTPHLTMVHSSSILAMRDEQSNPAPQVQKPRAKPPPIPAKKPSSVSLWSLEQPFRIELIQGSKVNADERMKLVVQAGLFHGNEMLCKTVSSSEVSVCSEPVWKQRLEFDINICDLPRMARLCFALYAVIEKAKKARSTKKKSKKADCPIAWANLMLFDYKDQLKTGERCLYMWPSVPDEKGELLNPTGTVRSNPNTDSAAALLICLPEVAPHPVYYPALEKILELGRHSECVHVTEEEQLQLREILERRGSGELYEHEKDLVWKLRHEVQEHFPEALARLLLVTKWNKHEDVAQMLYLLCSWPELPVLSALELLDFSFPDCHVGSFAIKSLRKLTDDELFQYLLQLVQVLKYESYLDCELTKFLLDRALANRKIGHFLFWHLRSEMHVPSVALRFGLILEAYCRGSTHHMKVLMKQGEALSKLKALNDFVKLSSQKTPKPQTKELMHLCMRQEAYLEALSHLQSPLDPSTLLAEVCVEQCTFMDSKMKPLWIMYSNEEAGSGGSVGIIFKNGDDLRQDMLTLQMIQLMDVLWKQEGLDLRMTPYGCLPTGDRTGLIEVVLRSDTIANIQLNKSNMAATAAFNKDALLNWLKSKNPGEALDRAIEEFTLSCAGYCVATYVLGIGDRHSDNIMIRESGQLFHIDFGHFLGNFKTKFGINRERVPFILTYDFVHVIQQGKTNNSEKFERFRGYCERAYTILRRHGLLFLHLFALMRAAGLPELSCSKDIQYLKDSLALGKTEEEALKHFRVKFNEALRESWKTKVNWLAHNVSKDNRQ
UniProt O94880: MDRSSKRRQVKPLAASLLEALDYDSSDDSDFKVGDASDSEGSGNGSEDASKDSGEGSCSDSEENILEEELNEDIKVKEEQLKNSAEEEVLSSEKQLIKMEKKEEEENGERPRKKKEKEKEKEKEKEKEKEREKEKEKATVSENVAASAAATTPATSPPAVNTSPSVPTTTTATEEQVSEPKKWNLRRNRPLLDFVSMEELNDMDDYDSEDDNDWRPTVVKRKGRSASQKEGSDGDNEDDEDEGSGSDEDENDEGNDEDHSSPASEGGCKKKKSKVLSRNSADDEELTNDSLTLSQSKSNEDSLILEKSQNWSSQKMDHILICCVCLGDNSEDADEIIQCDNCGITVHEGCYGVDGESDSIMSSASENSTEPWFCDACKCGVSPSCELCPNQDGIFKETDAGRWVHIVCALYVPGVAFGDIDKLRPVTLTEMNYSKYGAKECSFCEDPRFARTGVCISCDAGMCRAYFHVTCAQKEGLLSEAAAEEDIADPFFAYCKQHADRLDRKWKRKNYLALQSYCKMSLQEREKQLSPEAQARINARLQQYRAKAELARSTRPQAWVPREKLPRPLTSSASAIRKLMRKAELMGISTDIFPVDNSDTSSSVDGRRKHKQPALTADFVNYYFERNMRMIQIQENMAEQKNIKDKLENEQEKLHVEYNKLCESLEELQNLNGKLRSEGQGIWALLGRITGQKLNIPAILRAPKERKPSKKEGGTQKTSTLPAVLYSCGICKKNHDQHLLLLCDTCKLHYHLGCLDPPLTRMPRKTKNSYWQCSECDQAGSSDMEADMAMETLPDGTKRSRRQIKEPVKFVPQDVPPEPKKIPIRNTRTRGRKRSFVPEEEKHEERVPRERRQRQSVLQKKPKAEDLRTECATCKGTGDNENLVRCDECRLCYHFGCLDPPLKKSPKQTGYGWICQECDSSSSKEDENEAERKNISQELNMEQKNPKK

[2] = compound: CN1CCN(c2nc(C3=C(c4c[nH]c5ccccc45)C(=O)NC3=O)c3ccccc3n2)CC1 [sotrastaurin]
Procedure, shortened: as §1

[3] = compound: CN1CCc2c(c3ccccc3n2Cc2ccc(C(=O)NO)cc2)C1 [Tubastatin A]
Procedure, shortened: as §1

[4] = compound: CNC(=O)C1=CC=CC=C1NC2=NC(=NC=C2Cl)NC3=C(C=C(C=C3)N4CCOCC4)OC
Procedure, shortened: as §1

[5] = compound: CNC(=O)c1ccc(Nc2ncc(C(F)(F)F)c(NCc3nccnc3N(C)S(C)(=O)=O)n2)cc1 [defactinib]
Procedure, shortened: as §1

[6] = compound: CNCc1ccc(-c2[nH]c3cc(F)cc4c3c2CCNC4=O)cc1 [rucaparib]
Procedure, shortened: as §1

[7] = compound: CNc1nc(-c2ccc3c(N)n[nH]c3c2)cc(N2C[C@@H](C(=O)NC3CCCCC3)CC[C@H]2C)n1
Procedure, shortened: as §1

[8] = compound: COC(=O)N[C@@H](C)CNc1nccc(-c2cn(C(C)C)nc2-c2cc(Cl)cc(NS(C)(=O)=O)c2F)n1 [encorafenib]
Procedure, shortened: as §1

[9] = compound: COC(=O)[C@H](CCSC)NC(=O)C1=C(C=C(C=C1)NC[C@H](CS)N)C2=CC=CC=C2
Procedure, shortened: as §1

[10] = compound: COC1=CC=C(C=C1)CN2C=CC3=C2C=C(C=C3)C(=O)NO
Procedure, shortened: as §1

[11] = compound: CON(C)C(=O)N1N=C(c2cc(F)ccc2F)S[C@@]1(CCCN)c1ccccc1 [filanesib]
Procedure, shortened: as §1

[12] = compound: CO[C@H]1C[C@@H]2CC[C@@H](C)[C@@](O)(O2)C(=O)C(=O)N2CCCC[C@H]2C(=O)O[C@H]([C@H](C)C[C@@H]2CC[C@H](n3cnnn3)[C@H](OC)C2)CC(=O)[C@H](C)/C=C(\C)[C@@H](O)[C@@H](OC)C(=O)[C@H](C)C[C@H](C)/C=C/C=C/C=C/1C [zotarolimus]
Procedure, shortened: as §1

[13] = compound: COc1cc(C(=O)O)ccc1NC(=O)[C@@H]1N[C@@H](CC(C)(C)C)[C@](C#N)(c2ccc(Cl)cc2F)[C@H]1c1cccc(Cl)c1F [idasanutlin]
Procedure, shortened: as §1

[14] = compound: COc1cc(Nc2ncc3c(n2)-c2ccc(Cl)cc2C(c2c(F)cccc2OC)=NC3)ccc1C(=O)O [alisertib]
Procedure, shortened: as §1

[15] = compound: COc1cc2nc(-c3cc(F)ccc3O)nc(N[C@@H]3CNC[C@H]3C(C)(C)O)c2cc1OC
Procedure, shortened: as §1

[16] = compound: COc1cc2ncnc(Nc3ccc(F)c(Cl)c3)c2cc1OCCCN1CCOCC1 [gefitinib]
Procedure, shortened: as §1

[17] = compound: COc1cccc2cc(-c3nc([C@H]4CC[C@H](C(=O)O)CC4)n4ncnc(N)c34)[nH]c12
Procedure, shortened: as §1

[18] = compound: CS(=O)(=O)CCNCc1ccc(-c2ccc3ncnc(Nc4ccc(OCc5cccc(F)c5)c(Cl)c4)c3c2)o1 [lapatinib]
Procedure, shortened: as §1

[19] = compound: CS(=O)(=O)N1CCN(Cc2cc3nc(-c4cccc5[nH]ncc45)nc(N4CCOCC4)c3s2)CC1 [pictilisib]
Procedure, shortened: as §1

[20] = compound: CN1CC[C@H](c2c(O)cc(O)c3c(=O)cc(-c4ccccc4Cl)oc23)[C@H](O)C1 [alvocidib]
Procedure, shortened: as §1

Measured: log2 fold change

PLBD2 (UniProt Q8NHP8)
inactive: [1] 0.033 | [2] 0.031 | [3] 0.01 | [4] 0.029 | [5] -0.025 | [6] -0.115 | [7] -0.008 | [8] 0.005 | [9] 0.038 | [10] -0.069 | [11] -0.015 | [12] -0.029 | [13] -0.012 | [14] -0.048 | [15] -0.007 | [16] 0.018 | [17] 0.041 | [18] -0.008 | [19] 0.027

PHKG2 (UniProt P15735)
inactive: [1] 0.002 | [2] -0.071 | [3] 0.029 | [4] 0.167 | [5] 0.026 | [6] -0.032 | [7] 0.1 | [8] 0.181 | [9] -0.025 | [10] 0.014 | [11] -0.01 | [12] -0.051 | [13] 0.007 | [14] -0.026 | [15] 0.219 | [16] -0.063 | [17] 0.015 | [18] 0.105 | [19] -0.055

PIKFYVE (UniProt Q9Y2I7)
inactive: [1] -0.001 | [2] -0.081 | [3] -0.032 | [4] 0.009 | [5] -0.033 | [6] 0.068 | [7] -0.106 | [8] 0.099 | [9] -0.025 | [10] 0.03 | [11] -0.036 | [12] -0.074 | [13] -0.096 | [14] 0.016 | [15] -0.037 | [16] -0.308 | [17] -0.044 | [18] -0.098 | [19] -0.047

PFDN1 (UniProt O60925)
inactive: [1] -0.074 | [2] -0.014 | [3] 0.022 | [4] -0.001 | [5] -0.066 | [6] -0.095 | [7] 0.093 | [8] 0.008 | [9] -0.078 | [10] -0.048 | [11] -0.007 | [12] 0.091 | [13] -0.024 | [14] -0.042 | [15] -0.125 | [16] -0.002 | [17] 0.026 | [18] -0.047 | [19] 0.014

PLBD1 (UniProt Q6P4A8)
inactive: [1] 0.024 | [2] 0.071 | [3] -0.013 | [4] 0.054 | [5] 0.023 | [6] 0.034 | [7] 0.001 | [8] 0.001 | [9] 0 | [10] -0.076 | [11] -0.051 | [12] -0.057 | [13] 0.019 | [14] 0.169 | [15] -0.016 | [16] 0.019 | [17] 0.048 | [18] 0.03 | [19] 0.039

PHYKPL (UniProt Q8IUZ5)
inactive: [1] -0.272 | [2] -0.084 | [3] -0.101 | [4] 0.016 | [7] 0.168 | [11] 0.091 | [14] 0.035 | [15] 0.11 | [16] -0.132 | [17] -0.234 | [18] -0.038 | [19] -0.024

PIGW (UniProt Q7Z7B1)
inactive: [1] -0.061 | [2] 0.009 | [3] -0.027 | [4] -0.071 | [5] -0.053 | [6] 0.05 | [7] -0.047 | [8] -0.075 | [9] 0.086 | [11] -0.048 | [13] -0.146 | [14] -0.086 | [15] 0.032 | [16] 0.067 | [17] 0.072 | [18] -0.054 | [19] 0.063

PIGL (UniProt Q9Y2B2)
inactive: [1] 0.052 | [20] 0.1 | [3] -0.027 | [4] -0.021 | [5] -0.01 | [6] -0.064 | [7] -0.041 | [8] -0.114 | [9] -0.06 | [10] 0.104 | [12] 0.066 | [13] -0.11 | [14] -0.033 | [16] -0.121 | [17] -0.076 | [19] -0.034

PIGH (UniProt Q14442)
inactive: [1] -0.099 | [4] 0.012 | [5] 0.005 | [6] 0.037 | [7] 0.025 | [8] -0.068 | [9] -0.001 | [10] -0.029 | [12] 0.031 | [13] -0.127 | [14] 0.003 | [15] -0.019 | [17] 0.038 | [18] -0.009 | [19] 0.04
active: [3] -0.274

PIP5K1C isoform 3 (UniProt O60331)
inactive: [1] -0.011 | [2] 0.134 | [3] 0.143 | [4] 0.011 | [7] 0.236 | [11] 0.027 | [19] 0.015

Copied from the entries so far (2 entries):
PHYKPL (UniProt Q8IUZ5)
inactive: [1] -0.272 | [2] -0.084 | [3] -0.101 | [4] 0.016 | [7] 0.168 | [11] 0.091 | [14] 0.035 | [15] 0.11 | [16] -0.132 | [17] -0.234 | [18] -0.038 | [19] -0.024

PIGW (UniProt Q7Z7B1)
inactive: [1] -0.061 | [2] 0.009 | [3] -0.027 | [4] -0.071 | [5] -0.053 | [6] 0.05 | [7] -0.047 | [8] -0.075 | [9] 0.086 | [11] -0.048 | [13] -0.146 | [14] -0.086 | [15] 0.032 | [16] 0.067 | [17] 0.072 | [18] -0.054 | [19] 0.063

The results go on:

PIBF1 (UniProt Q8WXW3)
inactive: [1] -0.227 | [3] -0.019 | [4] 0.05 | [7] 0.113 | [14] -0.078 | [17] -0.251

PGGHG (UniProt Q32M88)
inactive: [1] 0.061 | [2] -0.014 | [3] 0.04 | [4] -0.029 | [5] 0.127 | [6] 0.02 | [7] 0.017 | [8] -0.086 | [9] -0.02 | [10] -0.022 | [11] 0.073 | [12] 0.024 | [13] 0.162 | [14] -0.123 | [15] 0.082 | [16] -0.062 | [17] 0.041 | [18] -0.08 | [19] 0.042

PHF19 isoform 2 (UniProt Q5T6S3)
inactive: [1] -0.009 | [2] -0.025 | [3] 0.003 | [4] -0.107 | [5] -0.09 | [6] 0.215 | [7] 0.02 | [8] 0.168 | [9] -0.09 | [10] -0.023 | [11] 0.084 | [14] 0.161 | [15] 0.133 | [16] -0.113 | [17] -0.265 | [18] 0.055 | [19] -0.069

PHKA1 (UniProt P46020)
active: [13] -0.518
inactive: [1] -0.12 | [2] 0.058 | [3] -0.256 | [4] 0.101 | [6] -0.283 | [7] 0.027 | [8] -0.295 | [10] 0.046 | [11] 0.076 | [12] -0.024 | [14] -0.223 | [15] 0.265 | [16] -0.017 | [17] 0.034 | [18] -0.109 | [19] 0.049

PKM isoform 2 (UniProt P14618)
inactive: [1] 0.202 | [2] -0.133 | [3] -0.052 | [5] -0.045 | [6] 0.125 | [7] -0.063 | [8] -0.09 | [9] -0.081 | [10] 0.141 | [11] 0.04 | [13] -0.049 | [14] -0.139 | [15] 0.141 | [16] -0.056 | [17] 0.059 | [18] -0.115 | [19] 0.109

PIK3CD (UniProt O00329)
inactive: [1] -0.124 | [2] -0.106 | [3] 0.003 | [4] 0.08 | [5] -0.218 | [6] 0.182 | [7] 0.089 | [8] -0.019 | [9] -0.062 | [10] -0.016 | [11] 0.029 | [12] -0.098 | [13] 0.105 | [15] 0.02 | [18] -0.018

PEX5 isoform 4 (UniProt P50542)
inactive: [1] -0.425 | [2] -0.207 | [3] 0.077 | [4] 0.178 | [5] 0.006 | [7] 0.182 | [9] -0.097 | [11] 0.064 | [12] -0.048 | [13] -0.15

PHF14 (UniProt O94880)
inactive: [1] 0.147 | [2] 0.027 | [3] 0.046 | [5] 0.17 | [7] -0.114 | [9] -0.193 | [11] -0.016 | [14] -0.094 | [17] -0.1 | [19] -0.231

PIK3C3 (UniProt Q8NEB9)
inactive: [1] -0.007 | [2] -0.039 | [3] 0.027 | [4] -0.003 | [5] -0.012 | [6] 0.25 | [7] 0.002 | [8] 0.05 | [9] -0.018 | [10] 0.049 | [11] 0.221 | [12] 0.016 | [13] -0.055 | [14] 0.011 | [15] 0.172 | [16] 0.062 | [17] 0.007 | [18] 0.021 | [19] 0.094

From the supplement of paper PMC10849652
